Results: the supplement of paper PMC8728848
This is one part of the list.

Key:
Assay in all cases: glycan array binding signal (z-score within array); higher = stronger binding
Details in all cases: glycan notation: IUPAC condensed, linker removed
[1] = molecular target: Gal(a1-3)Gal(b1-4)GlcNAc(b1-2)Man
In short: (§1)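 The binding signal is a Z-score computed within each array and averaged over linkers. Arrays of the same protein sequence at different concentrations or buffers were also averaged together. Data originate from 3228 arrays in the Consortium for Functional Glycomics database, kept only where the protein sequence was available.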

[2] = molecular target: Gal(a1-3)Gal(b1-4)GlcNAc(b1-2)Man(a1-3)[Gal(a1-3)Gal(b1-4)GlcNAc(b1-2)Man(a1-6)]Man(b1-4)GlcNAc(b1-4)GlcNAc
In short: as §1

[3] = molecular target: Gal(a1-3)Gal(b1-4)GlcNAc(b1-3)GalNAc
In short: as §1

[4] = molecular target: Gal(a1-3)Gal(b1-4)GlcNAc(b1-6)GalNAc
In short: as §1

[5] = molecular target: Gal(a1-3)Gal(b1-4)[Fuc(a1-3)]GlcNAc
In short: as §1

[6] = molecular target: Gal(a1-3)Gal(b1-4)[Fuc(a1-3)]GlcNAc(b1-2)Man(a1-3)[Gal(a1-3)Gal(b1-4)[Fuc(a1-3)]GlcNAc(b1-2)Man(a1-6)]Man(b1-4)GlcNAc(b1-4)GlcNAc
In short: as §1

Gal(a1-3)GalNAc = molecular target: Gal(a1-3)GalNAc
In short: as §1

[7] = molecular target: Gal(a1-3)[Gal(a1-4)]Gal(b1-4)GlcNAc
In short: as §1

[8] = molecular target: Gal(a1-4)Gal(b1-3)GlcNAc(b1-2)Man(a1-3)[Gal(a1-4)Gal(b1-3)GlcNAc(b1-2)Man(a1-6)]Man(b1-4)GlcNAc(b1-4)GlcNAc
In short: as §1

Gal(a1-4)Gal(b1-4)Glc = molecular target: Gal(a1-4)Gal(b1-4)Glc
In short: as §1

Gal(a1-4)Gal(b1-4)GlcNAc = molecular target: Gal(a1-4)Gal(b1-4)GlcNAc
In short: as §1

[9] = molecular target: Gal(a1-4)Gal(b1-4)GlcNAc(b1-2)Man(a1-3)[Gal(a1-4)Gal(b1-4)GlcNAc(b1-2)Man(a1-6)]Man(b1-4)GlcNAc(b1-4)GlcNAc
In short: as §1

[10] = molecular target: Gal(a1-4)Gal(b1-4)GlcNAc(b1-3)Gal(b1-4)Glc
In short: as §1

Gal(a1-4)GlcNAc = molecular target: Gal(a1-4)GlcNAc
In short: as §1

Gal(a1-6)Glc = molecular target: Gal(a1-6)Glc
In short: as §1

Gal(b1-2)Gal = molecular target: Gal(b1-2)Gal
In short: as §1

Gal(b1-3)Gal = molecular target: Gal(b1-3)Gal
In short: as §1

Gal(b1-3)Gal(b1-4)GlcNAc = molecular target: Gal(b1-3)Gal(b1-4)GlcNAc
In short: as §1

Gal(b1-3)GalNAc = molecular target: Gal(b1-3)GalNAc
In short: as §1

[11] = molecular target: Gal(b1-3)GalNAc(a1-3)[Fuc(a1-2)]Gal(b1-4)Glc
In short: as §1

[12] = molecular target: Gal(b1-3)GalNAc(a1-3)[Fuc(a1-2)]Gal(b1-4)GlcNAc
In short: as §1

Gal(b1-3)GalNAc(b1-3)Gal = molecular target: Gal(b1-3)GalNAc(b1-3)Gal
In short: as §1

[13] = molecular target: Gal(b1-3)GalNAc(b1-3)Gal(a1-4)Gal(b1-4)Glc
In short: as §1

[14] = molecular target: Gal(b1-3)GalNAc(b1-4)Gal(b1-4)Glc
In short: as §1

[15] = molecular target: Gal(b1-3)GalNAc(b1-4)[Neu5Ac(a2-3)]Gal(b1-4)Glc
In short: as §1

Gal(b1-3)GlcNAc = molecular target: Gal(b1-3)GlcNAc
In short: as §1

[16] = molecular target: Gal(b1-3)GlcNAc(a1-3)Gal(b1-4)GlcNAc
In short: as §1

[17] = molecular target: Gal(b1-3)GlcNAc(a1-6)Gal(b1-4)GlcNAc
In short: as §1

Gal(b1-3)GlcNAc(b1-2)Man = molecular target: Gal(b1-3)GlcNAc(b1-2)Man
In short: as §1

[18] = molecular target: Gal(b1-3)GlcNAc(b1-2)Man(a1-3)[Gal(b1-3)GlcNAc(b1-2)Man(a1-6)]Man(b1-4)GlcNAc(b1-4)GlcNAc
In short: as §1

[19] = molecular target: Gal(b1-3)GlcNAc(b1-2)Man(a1-3)[Gal(b1-3)GlcNAc(b1-2)Man(a1-6)]Man(b1-4)GlcNAc(b1-4)[Fuc(a1-6)]GlcNAc
In short: as §1

[20] = molecular target: Gal(b1-3)GlcNAc(b1-2)Man(a1-3)[GlcNAc(b1-4)][Gal(b1-3)GlcNAc(b1-2)Man(a1-6)]Man(b1-4)GlcNAc(b1-4)GlcNAc
In short: as §1

[21] = molecular target: Gal(b1-3)GlcNAc(b1-2)[Gal(b1-3)GlcNAc(b1-6)]Man(a1-6)[Gal(b1-3)GlcNAc(b1-2)Man(a1-3)]Man(b1-4)GlcNAc(b1-4)GlcNAc
In short: as §1

[22] = molecular target: Gal(b1-3)GlcNAc(b1-3)Gal(b1-3)GlcNAc
In short: as §1

[23] = molecular target: Gal(b1-3)GlcNAc(b1-3)Gal(b1-4)Glc
In short: as §1

[24] = molecular target: Gal(b1-3)GlcNAc(b1-3)Gal(b1-4)GlcNAc
In short: as §1

[25] = molecular target: Gal(b1-3)GlcNAc(b1-3)Gal(b1-4)GlcNAc(b1-2)Man(a1-3)[Gal(b1-3)GlcNAc(b1-3)Gal(b1-4)GlcNAc(b1-2)Man(a1-6)]Man(b1-4)GlcNAc(b1-4)GlcNAc
In short: as §1

[26] = molecular target: Gal(b1-3)GlcNAc(b1-3)Gal(b1-4)GlcNAc(b1-2)[Gal(b1-3)GlcNAc(b1-3)Gal(b1-4)GlcNAc(b1-6)]Man(a1-6)[Gal(b1-3)GlcNAc(b1-3)Gal(b1-4)GlcNAc(b1-2)Man(a1-3)]Man(b1-4)GlcNAc(b1-4)[Fuc(a1-6)]GlcNAc
In short: as §1

[27] = molecular target: Gal(b1-3)GlcNAc(b1-3)Gal(b1-4)GlcNAc(b1-3)Gal(b1-4)GlcNAc(b1-2)[Gal(b1-3)GlcNAc(b1-3)Gal(b1-4)GlcNAc(b1-3)Gal(b1-4)GlcNAc(b1-6)]Man(a1-6)[Gal(b1-3)GlcNAc(b1-3)Gal(b1-4)GlcNAc(b1-3)Gal(b1-4)GlcNAc(b1-2)Man(a1-3)]Man(b1-4)GlcNAc(b1-4)[Fuc(a1-6)]GlcNAc
In short: as §1

[28] = molecular target: Gal(b1-3)GlcNAc(b1-3)Gal(b1-4)GlcNAc(b1-6)[Gal(b1-3)GlcNAc(b1-3)]Gal(b1-4)Glc
In short: as §1

[29] = molecular target: Gal(b1-3)GlcNAc(b1-3)Gal(b1-4)[Fuc(a1-3)]GlcNAc
In short: as §1

[30] = molecular target: Gal(b1-3)GlcNAc(b1-3)Gal(b1-4)[Fuc(a1-3)]GlcNAc(b1-6)[Gal(b1-3)GlcNAc(b1-3)]Gal(b1-4)Glc
In short: as §1

[31] = molecular target: Gal(b1-3)GlcNAc(b1-3)GalNAc
In short: as §1

[32] = molecular target: Gal(b1-3)GlcNAc(b1-6)Gal(b1-4)GlcNAc
In short: as §1

[33] = molecular target: Gal(b1-3)GlcNAc(b1-6)GalNAc
In short: as §1

B1: Pwp1 (Candida glabrata) (protein)
chain: MGSSHHHHHHSSGLVPRGSHMASANPISITNVCQFPDNWARTAGFQATTVRLGLTIASNTYKELLNYPGLFNFATQKATVTQPNFSISGFPFFTGLYGLTVWPINLLVELQGYFVPPESGNYTFTLQGSDDAAILFFANPSTFACGSQNDWPQPREADITVTDTLVPSRTLYLVKGVAYPIRIAYYNGSGDGKLNVSFKDPSGTTHTDWKGYVWQYSNTCSTCTYT
glycan array binding signal (z-score) [1]: 0.772
glycan array binding signal (z-score) [2]: -1.01
glycan array binding signal (z-score) [3]: -1.48
glycan array binding signal (z-score) [4]: 1.01
glycan array binding signal (z-score) [5]: 1.03
glycan array binding signal (z-score) [6]: 0.68
glycan array binding signal (z-score) (Gal(a1-3)GalNAc): 0.085
glycan array binding signal (z-score) [7]: -0.59
glycan array binding signal (z-score) [8]: 0.075
glycan array binding signal (z-score) (Gal(a1-4)Gal(b1-4)Glc): -0.356
glycan array binding signal (z-score) (Gal(a1-4)Gal(b1-4)GlcNAc): -0.701
glycan array binding signal (z-score) [9]: -1.92
glycan array binding signal (z-score) [10]: 0.195
glycan array binding signal (z-score) (Gal(a1-4)GlcNAc): 0.974
glycan array binding signal (z-score) (Gal(a1-6)Glc): 1.13
glycan array binding signal (z-score) (Gal(b1-2)Gal): 0.655
glycan array binding signal (z-score) (Gal(b1-3)Gal): 0.861
glycan array binding signal (z-score) (Gal(b1-3)Gal(b1-4)GlcNAc): -0.314
glycan array binding signal (z-score) (Gal(b1-3)GalNAc): 0.164
glycan array binding signal (z-score) [11]: 1.35
glycan array binding signal (z-score) [12]: -1.15
glycan array binding signal (z-score) (Gal(b1-3)GalNAc(b1-3)Gal): 0.028
glycan array binding signal (z-score) [13]: -0.874
glycan array binding signal (z-score) [14]: 1.92
glycan array binding signal (z-score) [15]: -0.763
glycan array binding signal (z-score) (Gal(b1-3)GlcNAc): 0.448
glycan array binding signal (z-score) [16]: 0.906
glycan array binding signal (z-score) [17]: 0.385
glycan array binding signal (z-score) (Gal(b1-3)GlcNAc(b1-2)Man): 0.477
glycan array binding signal (z-score) [18]: -1.52
glycan array binding signal (z-score) [19]: -1.5
glycan array binding signal (z-score) [20]: -0.457
glycan array binding signal (z-score) [21]: -1.77
glycan array binding signal (z-score) [22]: -1.43
glycan array binding signal (z-score) [23]: 0.63
glycan array binding signal (z-score) [24]: 1.46
glycan array binding signal (z-score) [25]: 0.642
glycan array binding signal (z-score) [26]: -0.463
glycan array binding signal (z-score) [27]: 0.287
glycan array binding signal (z-score) [28]: -0.984
glycan array binding signal (z-score) [29]: 0.169
glycan array binding signal (z-score) [30]: 0.649
glycan array binding signal (z-score) [31]: -1.23
glycan array binding signal (z-score) [32]: -1.46
glycan array binding signal (z-score) [33]: 0.659
